Assay results published in PubChem BioAssay AID1347426 (Functional Genomics Laboratory (NCATS/FGL), 2020).
In all, about 31,000 sequences went through this assay and about 1,400 (4.5%) were called active.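 Rule for the calls: active = median seed-adjusted z-score above 1 or below -1; inactive = the rest.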 The list shows a part of the results.

Test: Novel Modifiers of Survival Motor Neuron (SMN) Protein: Gene Identification via Genome-wide siRNA Screen;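 note: luminescence tracks full-length SMN protein made from the SMN2 reporter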
Conditions: HEK293T SMN2-luciferase reporter, siRNA knockdown, 72 h; actives lie on both sides
Summary of the method: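 HEK293T cells stably expressing an SMN2 splicing/cDNA-luciferase reporter were reverse-transfected with a druggable-genome siRNA library and read by luminescence at 72 hours; hits defined by MAD score above 1.0 or below -1.0.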

| Sequence | median seed-adjusted z-score |
| --- | --- |
| AGAUGACGGUGGAUCACUUTT against HEYL | inactive: 0.48 |
| CUACGGAUGUGAAUCAAGATT against TAC3 | inactive: -0.00265 |
| GGCCUUACUUAUUUGUGGATT against MAP2K5 | inactive: 0.986 |
| AGAAUGUCUUGAUUGUGGATT against HPRT1 | inactive: -0.0463 |
| GAAUGGUUAUAAAAGUGAUTT against HNRNPA1 | inactive: 0.563 |
| CAAGACCGAGAGAACAAUATT against ENOX1 | inactive: 0.0694 |
| GCAAGCUCAUGAAACAUGATT against MAPK12 | inactive: 0.0649 |
| GCACAAUUGAAAACUUCAATT against CYSLTR2 | inactive: 0.0461 |
| GGACUGCAGUGCAACGCAUTT against CRHR1 | inactive: -0.67 |
| GCCUUACAACUCUAAUGAATT against ZNF519 | inactive: 0.0162 |
| AGCAUGUAAUCAGCCCAAATT against GMEB2 | inactive: -0.669 |
| GUAUGAGAAUGACACGUCATT against ZNF69 | inactive: 0 |
| GAGUGACAGUUCAGCUGGATT against TBX10 | inactive: 0.175 |
| CAACAUCUGCUGUAAGAAATT against INHBA | inactive: 0.361 |
| GAACUUGACCCAUACCUAUTT against SLC4A9 | inactive: 0 |
| CAAUAGUAUCAUAACUAGATT against BCHE | inactive: 0.117 |
| CGCUGAGCUCAACACCAUATT against SLC12A3 | inactive: -0.891 |
| GAGGAGUGCUGUUUCCGCATT against IGF2 | inactive: -0.0306 |
| CACCCAGCCUGGUACUGAATT against COMT | inactive: -0.0808 |
| CGCUCAGCCUUUUACUGGATT against LGI1 | inactive: -0.19 |
| CACGAGUGAUAAACAUAUUTT against SLC3A1 | inactive: -0.33 |
| CCUAAAUGAUCGCAAAGUATT against PABPC1 | inactive: -0.126 |

| Sequence | median seed-adjusted z-score |
| --- | --- |
| CCUUAUCCGCUACCUCCAATT against TAF5L | inactive: 0.409 |
| CUAAGGGACUCAGCACUAATT against PCSK1 | inactive: 0.154 |
| GGUAUCACACUUUAACCAATT against BAG5 | inactive: -0.0153 |
| GAGUAGCACUUGUUAACGATT against ZC3HAV1 | inactive: 0.522 |
| GGAGGUUUUAAUUUCCGAATT against LAMA4 | inactive: 0.691 |
| GGGAAUUUGUCUACCAGGATT against ZSCAN18 | inactive: 0.125 |
| CACUAAUGGAUAUUGCCUATT against BMI1 | inactive: 0 |
| GAGAGAACAUAGACGAGGATT against RYR1 | inactive: -0.474 |
| CUAUGUUUGUGGAGACUCATT against STX2 | inactive: 0.442 |
| UGUCUGUACUGAUCCUCAATT against HMGN1 | inactive: -0.183 |
| ACACCCAGCUGACAUCCGATT against CACNG5 | inactive: -0.41 |
| GAGUUGCACAAGAUAGUUUTT against TCERG1 | inactive: 0.415 |
| GCGAUAUCCUGGAUGAGAATT against ELF4 | inactive: -0.0311 |
| CAAAGACUAUUUCCUAGAATT against GNA13 | inactive: 0 |
| GCAUUGCUCAAGAUUCUCATT against SPOCK3 | inactive: 0.329 |
| GAAACGAUGUGAGUAUGCATT against MED13 | inactive: -0.469 |
| GAAUCCUCAAUGUGGAUGATT against HPCA | inactive: 0.12 |
| GGUUCAUCUGGGAAUAUGATT against RERG | inactive: 0.59 |
| GGUAGAUCUCUACAACCCATT against AKAP4 | inactive: 0.116 |
| GGAGCACUCGACUACUAUATT against RBM4B | inactive: -0.251 |
| CCCGUAAUGUCUUAGUGAATT against ERBB4 | inactive: 0.166 |
| GAGCGUGGACGGACGAAAATT against RBP5 | inactive: -0.748 |

| Sequence | median seed-adjusted z-score |
| --- | --- |
| GGCGAGCACUAUGAAGUCATT against DPP9 | inactive: -0.224 |
| GAAGACUCAUCAUUACUUATT against TAF11 | inactive: -0.848 |
| CCGUCUGGGCUUUACUAUATT against CNTNAP3 | inactive: 0.15 |
| GCAUAUGCUUUGGAUUAUUTT against PANK2 | inactive: 0.121 |
| GGCUCUUCGACAGCUCGUATT against PPT2 | inactive: 0.0334 |
| CGAAUGCAAUGUUUGUGGATT against ZNF146 | inactive: 0.23 |
| CAAUGGGUCUGUCUACUUUTT against CARS | inactive: 0 |
| GGACAAGAGGAAACCCACATT against UQCR | inactive: 0.193 |
| GCUGGGAGGUGUUUGCAAATT against NDUFA11 | inactive: -0.722 |
| AGGUAGAAUGGACAAGUGATT against PPP1R11 | inactive: -0.498 |
| CAUCAAUGAGGUAUACUAUTT against DYRK1B | inactive: 0.29 |
| CGUACGGAGAGGUGAGAAATT against GALNT9 | inactive: 0.787 |
| GCCUUUCGAUUCAUCUACATT against GPR34 | inactive: 0.529 |
| ACUGUGCCGUUUCCACCAATT against CCR9 | inactive: 0.16 |
| CCUGAACACACCUUACAUATT against RNASE8 | inactive: 0.00771 |
| GGGAAGGCGUCAUGAAACATT against DHDH | inactive: 0.522 |
| CCACGGUUGCUCCAAUGUATT against SVIL | inactive: 0.0852 |
| CCAGUGAACUUCUUGGAGATT against SOX6 | inactive: 0.0135 |
| CAGGUGACAUGGUAAGGAUTT against DZIP3 | inactive: 0.435 |
| AUUCAGCCCUGUUAGUUCATT against ZNF701 | inactive: -0.0161 |
| GUACGGAACCUGACCGAUUTT against ATE1 | inactive: 0.569 |
| GAGAGACAUUUCAAUAAGATT against USP5 | inactive: 0.596 |

Individual results from above:
median seed-adjusted z-score with GUACGGAACCUGACCGAUUTT against ATE1 reads inactive: 0.569
median seed-adjusted z-score with CGAAUGCAAUGUUUGUGGATT against ZNF146 reads inactive: 0.23
median seed-adjusted z-score with CAAUGGGUCUGUCUACUUUTT against CARS reads inactive: 0

Next part:

| Sequence | median seed-adjusted z-score |
| --- | --- |
| GGAGUAUAAGUUCUACUAUTT against TYK2 | inactive: -0.549 |
| UGAUGUGAGUUCUUCGAAUTT against FCN1 | inactive: 0.346 |
| GGGAAUUUGUGAGACAGUATT against G3BP1 | inactive: -0.593 |
| GCAUGUACAUCCACCCAGATT against TBX2 | inactive: 0.42 |
| UGUCAGUGCUCGGCUGUAATT against AIRE | inactive: 0.308 |
| CCUGUUUCCUAUUAACGAATT against GRM3 | inactive: -0.401 |
| CAUUCACUUUGACACCAUATT against HSD17B7 | inactive: 0.0836 |
| GGAUUAUAUGCUGUAUGUATT against CADM1 | inactive: 0.419 |
| CCUAUGAUCCAAUGCUUAATT against DDR2 | inactive: 0.252 |
| GGACUUCGGUGUGAAUGGUTT against AACS | inactive: 0.232 |
| GUGGAAAAGCGGAAAUGCATT against IAPP | inactive: -0.157 |
| CCAUCUCGAAUGGAUCGUATT against SMARCC1 | inactive: -0.0304 |
| GCAUCGCCGAGAAGGUUAATT against TXNL4A | inactive: -0.42 |
| CAGCAAAACUGAUAGAGAATT against EEF2 | inactive: -0.159 |
| GAGGAACAGUUAAUUGAAUTT against SNAPC4 | inactive: -0.62 |
| CGCAGUGAGUUUGAACAGATT against SETD1A | inactive: 0.0595 |
| GCAUCAUUGAAGGACUAGATT against HEY1 | inactive: -0.023 |
| CGAACCUUCUUCUCCGAAATT against ZNF521 | inactive: -0.331 |
| ACACCAAUAUUAACACGCUTT against WISP2 | inactive: -0.0731 |
| GCAACGUAAAAAUUGUGAATT against ATP5E | inactive: -0.724 |
| AGGACUCCGGCAUCACAUATT against DUSP3 | inactive: -0.00768 |
| GAUUUACUAUUUGAACAGATT against ADAT1 | inactive: 0.404 |

| Sequence | median seed-adjusted z-score |
| --- | --- |
| CCAUGACUGAUAUUCGCAATT against CAPN6 | inactive: 0.0288 |
| GGUUACCUUUUUCACAAGATT against UGT2B10 | inactive: 0.989 |
| CGAGAUAACGUGGACCUAUTT against ANAPC7 | inactive: -0.263 |
| GCUAUGAGCUGAGCCCUCATT against RARG | inactive: -0.0492 |
| CCUUGUCUGUUUUGAGCAATT against CHD1L | inactive: 0.63 |
| GACCCGGUAUAUGAACUCATT against UCP3 | active: 1.23 |
| GUCUAGAUGAUGCCUUAAATT against DHFR | inactive: -0.952 |
| CGGGAAAGGGAGAAUCUUATT against GOSR1 | inactive: -0.252 |
| CCUUGGAACUUCAUACUAUTT against TRIM38 | inactive: -0.375 |
| CAACUAAUUUCUAAUCGUUTT against ADAD1 | inactive: -0.0795 |
| GCAGUAUGCAAGAAGGAUATT against CCNB3 | inactive: 0 |
| AGGUUGAACUGCAAGCCAATT against KRT6C | inactive: -0.275 |
| GCCUGGAGAUAUUAUUCAUTT against ST8SIA2 | inactive: 0.516 |
| CGUCUUCUACCGCAACCAUTT against PHYHIP | inactive: 0.18 |
| GUUGAUUUAUCAUUAGUGATT against KYNU | inactive: 0.00735 |
| UCACCGUUGCUGAACAAAATT against DUS2L | inactive: -0.705 |
| CGAUAGCACCUUCCUGUUUTT against GALT | inactive: 0.484 |
| GGACCUCCCUGUGAAUGAUTT against OAZ2 | inactive: 0.66 |
| GCUAAGAACAGAAAGGACATT against KRT9 | inactive: 0.545 |
| CAAAGACGAUGACUUCGAATT against MAP2K2 | inactive: -0.502 |

Shown in CSV form: part of the list above
Sequence,median seed-adjusted z-score
CACUAAUGGAUAUUGCCUATT against BMI1,inactive: 0
GAGAGAACAUAGACGAGGATT against RYR1,inactive: -0.474
CUAUGUUUGUGGAGACUCATT against STX2,inactive: 0.442
UGUCUGUACUGAUCCUCAATT against HMGN1,inactive: -0.183
